From PubChem BioAssay AID2111 (National Center for Advancing Translational Sciences (NCATS), 2009)
Inconclusive results, whose numbers are uncertain, are shown with a selection of clear calls. A call without a number means that no potency is given here. Potencies beside an inconclusive call are fits to weak or partial responses and may not hold up. The source made the active and inactive calls. The call rests on the fitted dose curve; in most records, active means well fitted curve in either direction with a large enough effect; inconclusive means small, poorly fitted or top-dose-only effect; inactive means no such curve, though single readings can be large or run the other way.

What follows are compounds tested against Lysosomal alpha-glucosidase (Homo sapiens) (UniProt P10253) (assay: Confirmation of Inhibitors and Activators of Human alpha-Glucosidase From Spleen Homogenate Using an Alternate Red Fluorescent Susbtrate). Conditions: resorufin-glucoside fluorescence; series mostly up to 62.8 µM.
From the text: NIH Chemical Genomics Center [NCGC] NIH Molecular Libraries Probe Production centers Network [MLPCN] MLPCN Grant: 1R03MH084841-01 Assay Submitter (PI): Wei Zheng NCGC Assay Overview: Alpha-glucosidase is responsible for hydrolysis of terminal, non-reducing 1,4-linked alpha-D-glucose residues with release of alpha-D-glucose. It is a lysosomal hydrolase that is required for the degradation of a small percentage (1-3%) of cellular glycogen in human. Deficiency of this enzyme results in glycogen-storage disease type II (GSDII), also referred to as Pompe disease, an autosomal recessive disorder. Structurally normal glycogen is accumulated in lysosomes and cytoplasm in affected patients, primarily in muscle tissues. Excessive glycogen storage within lysosomes may interrupt normal functioning of other organelles and leads to cellular injury. In turn, this leads to enlargement and dysfunction of the entire organ involved (eg, cardiomyopathy and muscle weakness). It has reported that the improper folding and trafficking of alpha-glucosidase resultinged from the genetic mutations may account for a significant number of Pomrope patients. […] We optimized this alpha-glucosidase assay in 1536-well plate format for identifying the novel small molecule inhibitors with the structures other than the sugar analogs in order to develop the new pharmacological chaperones. […]
NCGC Assay Protocol Summary: This is a fluorogenic enzyme assay with Resorufin-alpha-D-glucopyranoside as the substrate and human spleen homogenate containing alpha-glucosidase as the enzyme preparation. Upon hydrolysis of this fluorogenic substrate, the resulting product, resorufin (which excites at 573 nm and emits at 610 nm) can be detected by a fluorescence plate reader. […] The AC50 values were determined from concentration-response data modeled with the standard Hill equation. […] (3) Add 2 ul of substrate (1 mM final) (4) Incubate at 37 C for 40 min (5) Add 2 ul stop solution (1M NaOH and 1M Glycine mixture, pH 10) (6) Detect the assay plate in a ViewLux plate reader (PerkinElmer) with Ex=365 nm and Em=440nm. […]
For `CCCN1CNc2c(c(=O)[nH]c(=S)n2CCc2ccccn2)C1`, the Potency was inconclusive: 44.7 µM [activator, partial curve, poor fit].
With `CC(=O)c1ccc(N2CCN(S(=O)(=O)c3ccc4c(c3)CCC(=O)N4)CC2)cc1` the Potency was “inactive”.
With `O=S(=O)(c1ccc(Cl)cc1)N1CCN(c2nc(-c3cccs3)nc3ccccc23)CC1` the Potency was “inactive”.
